# Laboratory results from the supplement of paper PMC10849652.
# The chains behind the UniProt entries cited, without tags or fusion partners. Where a name states a change or a piece, a line headed by the entry shows the natural chain unless it says otherwise.
# UniProt Q9BQY4: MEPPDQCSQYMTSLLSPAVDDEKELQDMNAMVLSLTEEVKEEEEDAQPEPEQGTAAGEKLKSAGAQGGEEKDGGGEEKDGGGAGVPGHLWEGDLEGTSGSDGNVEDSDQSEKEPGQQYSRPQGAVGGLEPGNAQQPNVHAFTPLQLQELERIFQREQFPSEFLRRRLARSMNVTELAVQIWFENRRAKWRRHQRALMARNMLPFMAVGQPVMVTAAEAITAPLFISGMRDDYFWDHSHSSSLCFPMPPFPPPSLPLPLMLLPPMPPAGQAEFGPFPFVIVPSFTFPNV
# UniProt O75695: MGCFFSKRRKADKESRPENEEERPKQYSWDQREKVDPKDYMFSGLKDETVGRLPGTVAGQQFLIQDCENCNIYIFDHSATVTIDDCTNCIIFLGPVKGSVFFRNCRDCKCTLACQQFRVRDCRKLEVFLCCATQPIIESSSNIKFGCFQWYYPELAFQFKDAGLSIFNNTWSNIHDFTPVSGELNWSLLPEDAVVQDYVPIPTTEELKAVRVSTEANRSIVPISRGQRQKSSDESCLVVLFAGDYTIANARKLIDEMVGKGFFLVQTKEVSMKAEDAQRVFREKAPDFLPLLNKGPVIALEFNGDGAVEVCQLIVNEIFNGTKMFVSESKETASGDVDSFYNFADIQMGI
# UniProt Q96A37: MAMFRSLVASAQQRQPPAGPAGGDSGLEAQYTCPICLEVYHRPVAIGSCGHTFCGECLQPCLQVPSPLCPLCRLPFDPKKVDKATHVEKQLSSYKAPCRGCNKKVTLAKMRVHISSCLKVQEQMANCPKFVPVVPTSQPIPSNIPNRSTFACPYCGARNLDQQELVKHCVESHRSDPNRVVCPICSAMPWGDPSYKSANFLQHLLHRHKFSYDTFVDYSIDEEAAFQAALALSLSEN
# UniProt Q8IYW5, whole entry, looked up: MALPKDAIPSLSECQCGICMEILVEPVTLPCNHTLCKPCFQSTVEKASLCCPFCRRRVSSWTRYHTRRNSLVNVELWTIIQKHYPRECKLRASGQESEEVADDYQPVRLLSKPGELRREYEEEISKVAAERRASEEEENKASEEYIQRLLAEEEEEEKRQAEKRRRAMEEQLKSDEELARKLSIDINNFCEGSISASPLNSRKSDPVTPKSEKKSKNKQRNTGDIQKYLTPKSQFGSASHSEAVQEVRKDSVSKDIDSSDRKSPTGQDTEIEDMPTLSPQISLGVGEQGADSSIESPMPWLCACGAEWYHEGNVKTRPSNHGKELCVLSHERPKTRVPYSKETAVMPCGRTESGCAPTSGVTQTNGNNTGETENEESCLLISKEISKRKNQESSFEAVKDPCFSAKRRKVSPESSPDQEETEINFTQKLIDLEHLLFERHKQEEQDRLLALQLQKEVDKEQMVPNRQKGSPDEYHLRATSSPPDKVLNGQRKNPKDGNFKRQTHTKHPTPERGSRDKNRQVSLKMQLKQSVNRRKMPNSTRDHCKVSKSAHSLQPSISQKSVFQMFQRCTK
# UniProt Q5XPI4: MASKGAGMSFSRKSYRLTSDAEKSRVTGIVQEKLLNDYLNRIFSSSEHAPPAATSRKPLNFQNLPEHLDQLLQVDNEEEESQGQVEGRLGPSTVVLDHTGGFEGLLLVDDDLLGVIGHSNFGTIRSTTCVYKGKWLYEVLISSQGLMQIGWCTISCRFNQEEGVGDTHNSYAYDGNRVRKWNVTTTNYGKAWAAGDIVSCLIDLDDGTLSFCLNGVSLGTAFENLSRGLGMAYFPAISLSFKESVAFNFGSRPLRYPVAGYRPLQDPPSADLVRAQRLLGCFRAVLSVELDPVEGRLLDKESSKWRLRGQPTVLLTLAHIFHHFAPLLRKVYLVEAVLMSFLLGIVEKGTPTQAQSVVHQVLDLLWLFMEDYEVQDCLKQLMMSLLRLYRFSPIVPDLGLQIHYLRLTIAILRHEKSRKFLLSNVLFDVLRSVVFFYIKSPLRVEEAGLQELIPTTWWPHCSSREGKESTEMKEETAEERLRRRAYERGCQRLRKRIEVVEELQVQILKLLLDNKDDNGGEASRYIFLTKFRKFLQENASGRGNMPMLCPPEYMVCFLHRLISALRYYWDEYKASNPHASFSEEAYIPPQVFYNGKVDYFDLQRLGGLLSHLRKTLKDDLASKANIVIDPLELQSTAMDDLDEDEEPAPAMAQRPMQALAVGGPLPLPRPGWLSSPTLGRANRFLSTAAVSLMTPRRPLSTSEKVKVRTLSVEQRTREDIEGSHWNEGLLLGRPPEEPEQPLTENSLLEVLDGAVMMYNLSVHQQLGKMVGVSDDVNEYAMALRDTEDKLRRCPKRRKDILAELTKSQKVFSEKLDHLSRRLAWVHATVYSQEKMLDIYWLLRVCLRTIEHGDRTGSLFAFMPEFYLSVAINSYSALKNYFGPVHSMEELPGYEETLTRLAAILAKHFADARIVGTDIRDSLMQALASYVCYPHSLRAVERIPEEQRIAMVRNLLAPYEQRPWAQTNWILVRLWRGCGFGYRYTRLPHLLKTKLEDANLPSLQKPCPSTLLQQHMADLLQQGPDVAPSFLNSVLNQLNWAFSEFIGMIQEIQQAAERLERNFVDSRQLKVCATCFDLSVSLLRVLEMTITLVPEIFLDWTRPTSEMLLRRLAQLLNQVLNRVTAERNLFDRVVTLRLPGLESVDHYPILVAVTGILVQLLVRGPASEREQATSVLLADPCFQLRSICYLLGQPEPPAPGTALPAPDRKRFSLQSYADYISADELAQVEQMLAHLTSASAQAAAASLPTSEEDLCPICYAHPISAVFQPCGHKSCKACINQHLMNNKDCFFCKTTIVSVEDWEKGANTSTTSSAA
# UniProt Q969K3: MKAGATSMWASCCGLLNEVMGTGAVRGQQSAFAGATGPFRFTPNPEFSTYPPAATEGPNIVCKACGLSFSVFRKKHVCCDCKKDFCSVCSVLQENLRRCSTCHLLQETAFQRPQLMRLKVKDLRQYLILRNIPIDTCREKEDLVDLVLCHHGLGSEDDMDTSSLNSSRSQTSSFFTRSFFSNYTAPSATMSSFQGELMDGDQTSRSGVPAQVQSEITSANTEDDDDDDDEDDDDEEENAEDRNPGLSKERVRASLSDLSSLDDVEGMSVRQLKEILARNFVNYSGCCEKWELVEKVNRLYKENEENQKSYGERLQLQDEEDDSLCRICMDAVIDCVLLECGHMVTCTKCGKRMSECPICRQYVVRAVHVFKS
# UniProt Q9BWH6: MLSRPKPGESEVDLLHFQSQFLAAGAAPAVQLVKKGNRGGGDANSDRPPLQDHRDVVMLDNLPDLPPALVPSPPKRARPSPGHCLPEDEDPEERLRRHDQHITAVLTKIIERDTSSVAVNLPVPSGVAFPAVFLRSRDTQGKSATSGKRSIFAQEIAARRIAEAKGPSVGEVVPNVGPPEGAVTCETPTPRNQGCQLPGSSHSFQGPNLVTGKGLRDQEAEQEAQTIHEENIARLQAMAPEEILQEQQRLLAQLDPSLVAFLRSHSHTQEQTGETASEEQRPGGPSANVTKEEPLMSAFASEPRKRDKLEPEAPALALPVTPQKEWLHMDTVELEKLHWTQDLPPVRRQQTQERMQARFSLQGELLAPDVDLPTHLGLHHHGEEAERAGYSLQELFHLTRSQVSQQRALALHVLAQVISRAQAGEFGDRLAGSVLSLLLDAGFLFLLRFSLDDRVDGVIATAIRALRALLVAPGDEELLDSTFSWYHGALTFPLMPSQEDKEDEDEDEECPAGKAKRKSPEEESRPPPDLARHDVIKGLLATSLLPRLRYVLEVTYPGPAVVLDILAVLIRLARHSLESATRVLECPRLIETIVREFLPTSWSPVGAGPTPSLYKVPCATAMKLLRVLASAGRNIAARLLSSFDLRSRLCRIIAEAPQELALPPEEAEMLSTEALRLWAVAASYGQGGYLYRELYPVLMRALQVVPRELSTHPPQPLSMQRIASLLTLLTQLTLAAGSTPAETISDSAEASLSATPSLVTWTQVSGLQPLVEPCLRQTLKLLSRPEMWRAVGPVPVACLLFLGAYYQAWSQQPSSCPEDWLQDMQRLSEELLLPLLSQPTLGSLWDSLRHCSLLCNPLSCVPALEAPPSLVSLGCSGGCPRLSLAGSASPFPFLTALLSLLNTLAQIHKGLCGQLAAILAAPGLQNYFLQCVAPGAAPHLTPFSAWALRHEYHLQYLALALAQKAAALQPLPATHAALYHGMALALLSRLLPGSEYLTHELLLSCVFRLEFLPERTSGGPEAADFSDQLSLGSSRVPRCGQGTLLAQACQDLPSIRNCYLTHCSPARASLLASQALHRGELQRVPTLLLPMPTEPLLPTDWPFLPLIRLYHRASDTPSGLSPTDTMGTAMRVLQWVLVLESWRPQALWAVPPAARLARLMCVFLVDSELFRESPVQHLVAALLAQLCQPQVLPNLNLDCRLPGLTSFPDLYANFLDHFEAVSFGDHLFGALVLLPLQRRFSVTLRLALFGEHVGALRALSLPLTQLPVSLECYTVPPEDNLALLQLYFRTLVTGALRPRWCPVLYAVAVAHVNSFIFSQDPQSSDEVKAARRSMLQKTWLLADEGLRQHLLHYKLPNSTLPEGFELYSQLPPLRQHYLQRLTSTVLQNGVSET
# UniProt Q8ND24: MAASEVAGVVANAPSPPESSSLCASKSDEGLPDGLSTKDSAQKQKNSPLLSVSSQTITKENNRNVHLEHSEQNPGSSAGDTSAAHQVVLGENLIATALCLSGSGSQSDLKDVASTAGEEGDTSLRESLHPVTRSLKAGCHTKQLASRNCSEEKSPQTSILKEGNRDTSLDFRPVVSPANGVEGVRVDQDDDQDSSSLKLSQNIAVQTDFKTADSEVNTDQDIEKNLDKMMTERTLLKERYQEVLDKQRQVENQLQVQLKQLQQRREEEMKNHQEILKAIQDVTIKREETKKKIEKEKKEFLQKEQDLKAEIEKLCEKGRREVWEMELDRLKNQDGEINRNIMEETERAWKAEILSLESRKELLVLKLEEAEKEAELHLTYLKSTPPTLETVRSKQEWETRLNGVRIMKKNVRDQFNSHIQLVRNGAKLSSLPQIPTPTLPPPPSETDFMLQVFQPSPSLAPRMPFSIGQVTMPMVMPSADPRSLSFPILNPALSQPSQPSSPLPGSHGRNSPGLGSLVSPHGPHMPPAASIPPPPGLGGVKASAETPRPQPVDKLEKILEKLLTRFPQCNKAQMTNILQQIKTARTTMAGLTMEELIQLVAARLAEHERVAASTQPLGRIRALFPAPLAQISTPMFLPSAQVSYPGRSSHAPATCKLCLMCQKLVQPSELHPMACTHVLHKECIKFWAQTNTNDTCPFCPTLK
# UniProt Q9H871: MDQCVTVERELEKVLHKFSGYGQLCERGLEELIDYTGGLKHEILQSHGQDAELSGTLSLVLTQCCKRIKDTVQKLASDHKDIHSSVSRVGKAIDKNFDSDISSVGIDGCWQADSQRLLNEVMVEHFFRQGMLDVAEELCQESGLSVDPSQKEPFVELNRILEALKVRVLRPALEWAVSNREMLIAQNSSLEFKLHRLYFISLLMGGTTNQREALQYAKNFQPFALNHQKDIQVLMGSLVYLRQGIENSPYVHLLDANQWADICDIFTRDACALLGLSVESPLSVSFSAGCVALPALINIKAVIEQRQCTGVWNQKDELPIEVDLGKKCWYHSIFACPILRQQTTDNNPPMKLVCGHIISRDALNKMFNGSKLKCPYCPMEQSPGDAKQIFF
# UniProt P52758: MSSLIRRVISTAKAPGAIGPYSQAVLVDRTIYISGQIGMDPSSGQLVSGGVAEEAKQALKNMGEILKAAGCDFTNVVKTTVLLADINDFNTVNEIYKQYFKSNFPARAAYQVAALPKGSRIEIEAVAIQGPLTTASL
# UniProt Q9H6T3, whole entry, looked up: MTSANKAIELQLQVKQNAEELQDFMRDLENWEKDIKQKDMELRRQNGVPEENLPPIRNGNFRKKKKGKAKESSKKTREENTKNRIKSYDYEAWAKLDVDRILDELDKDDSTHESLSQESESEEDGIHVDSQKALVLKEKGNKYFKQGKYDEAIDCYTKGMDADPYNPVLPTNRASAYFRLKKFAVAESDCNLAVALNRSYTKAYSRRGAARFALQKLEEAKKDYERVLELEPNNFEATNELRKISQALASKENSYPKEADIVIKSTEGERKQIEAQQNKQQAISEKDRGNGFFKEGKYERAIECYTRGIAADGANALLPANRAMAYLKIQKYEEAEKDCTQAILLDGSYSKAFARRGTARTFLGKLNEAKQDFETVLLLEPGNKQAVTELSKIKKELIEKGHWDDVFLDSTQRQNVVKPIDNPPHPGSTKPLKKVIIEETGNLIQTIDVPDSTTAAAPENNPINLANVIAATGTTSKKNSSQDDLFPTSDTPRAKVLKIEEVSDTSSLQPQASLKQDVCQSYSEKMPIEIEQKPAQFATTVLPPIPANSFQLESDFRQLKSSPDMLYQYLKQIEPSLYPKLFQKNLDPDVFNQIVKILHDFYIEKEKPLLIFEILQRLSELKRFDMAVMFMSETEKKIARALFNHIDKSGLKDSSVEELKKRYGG
# This is one part of the list.
# How the values were obtained:
# Experiment in all cases: log2 fold change, soluble protein after heating vs DMSO (PISA); higher = thermal stabilisation; K562 lysate, 10 uM; active = over 0.2 and 3.5 SD of the protein, either way, in both replicates (recomputed)
# [1] = compound: C#Cc1cccc(Nc2ncnc3cc(OCCOC)c(OCCOC)cc23)c1 [erlotinib]
# How it was run: (§1)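 Following dounce homogenisation of K562 pellets in PBS pH 7.4 with 1 mM MgCl2, crude extract at 1 mg/mL protein was incubated for 30 min with 10 μM compound. Aliquots were then heated for 3 min over 48°C-58°C and pooled, NP-40 was added to 0.5% at 4°C, and soluble protein was recovered as the supernatant at 21,000xg for 90 min. Channel-sum-equalised TMTpro 16plex LC-MS/MS quantified this protein. Each value, from duplicates, is a log-two fold change in thermal stability relative to solvent controls.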
# [2] = compound: C/C(=N\NC(=O)C1=CC(=CC=C1)S(=O)(=O)N2CCOCC2)/C3=C(C=CC(=C3)Cl)O
# How it was run: as §1
# [3] = compound: C1=CC(=CC=C1C2=NC3=C(N2)C=C(C=C3)C(=O)N)OC4=CC=C(C=C4)Cl
# How it was run: as §1
# [4] = compound: C1=CC2=C(C=CC(=C2)/C=C\3/C(=O)NC(=NCC4=CC=CS4)S3)N=C1
# How it was run: as §1
# [5] = compound: C1=CC2=NC=CN=C2C=C1/C=C/3\C(=O)NC(=O)S3
# How it was run: as §1
# [6] = compound: C1=CC=C(C=C1)C2=NC(=C(N2)C3=CC=NC=C3)C4=CC(=C(C=C4)Cl)O
# How it was run: as §1
# [7] = compound: C1=CC=C2C(=C1)C3=NNC4=CC=CC(=C43)C2=O
# How it was run: as §1
# [8] = compound: C1CCN(C1)C(=O)NC2=CC=CC(=C2)NC3=NC=C(C(=N3)NCCC4=CN=CN4)Br
# How it was run: as §1
# [9] = compound: C1CN(CCC1(CC2=CC=C(C=C2)Cl)N)C3=NC=NC4=C3C=CN4
# How it was run: as §1
# [10] = compound: C1COCCN1CCN2C3=CC=CC=C3N=C2NC(=O)C4=CC(=CC=C4)[N+](=O)[O-] [IRAK-1-4 Inhibitor I]
# How it was run: as §1
# [11] = compound: C=CC(=O)N1CCC[C@@H](n2nc(-c3ccc(Oc4ccccc4)cc3)c3c(N)ncnc32)C1 [ibrutinib]
# How it was run: as §1
# [12] = compound: CC(=O)c1cnc2ccc(-c3cc(Cl)c(O)c(Cl)c3)nc2c1N[C@H]1CC[C@H](CN(C)C)CC1
# How it was run: as §1
# [13] = compound: CC(C)(C)Cn1c(N)nc2ccc(-c3[nH]c(C(C)(C)C)nc3-c3ccc(F)cc3)nc21 [ralimetinib]
# How it was run: as §1
# [14] = compound: CC(C)(O)CC(=O)NCCn1ccc2ncnc(Nc3ccc(Oc4cccc(C(F)(F)F)c4)c(Cl)c3)c21
# How it was run: as §1
# [15] = compound: CC(C)C1=C2N=C(C=C(N2N=C1)NCC3=CC=CC=C3)NCCCCCCN
# How it was run: as §1
# [16] = compound: CC1=C(C(CC(=O)N1)C2=CC=C(C=C2)C(F)(F)F)C(=O)NC3=C(C=C4C(=C3)C=NN4)F
# How it was run: as §1
# [17] = compound: CC1=C(C2=C(C=C1)C(=O)C3=CC=CC=C3N2CCCN)C
# How it was run: as §1
# [18] = compound: CC1=C(C=C(C=C1)NC(=O)C2=CC(=CC=C2)C(C)(C)C#N)NC3=CC4=C(C=C3)N=CN(C4=O)C
# How it was run: as §1
# [19] = compound: CC1=C(C=C(C=C1)NC(=O)C2=CC(=CC=C2)N(C)C)NC(=O)C3=CC=C(C=C3)O
# How it was run: as §1
# [20] = compound: CC1=CC=C(C=C1)SC2=C3C=C(SC3=CN=C2)C(=O)N
# How it was run: as §1
Target,log2 fold change [1],log2 fold change [2],log2 fold change [3],log2 fold change [4],log2 fold change [5],log2 fold change [6],log2 fold change [7],log2 fold change [8],log2 fold change [9],log2 fold change [10],log2 fold change [11],log2 fold change [12],log2 fold change [13],log2 fold change [14],log2 fold change [15],log2 fold change [16],log2 fold change [17],log2 fold change [18],log2 fold change [19],log2 fold change [20]
RHOXF2 (UniProt Q9BQY4),inactive: -0.014,inactive: 0.011,inactive: 0.029,inactive: -0.017,inactive: -0.003,inactive: -0.001,inactive: -0.093,inactive: 0.021,inactive: 0.108,inactive: 0.014,inactive: 0.027,inactive: -0.078,inactive: -0.01,inactive: -0.061,inactive: -0.011,inactive: 0,inactive: -0.026,inactive: -0.097,inactive: -0.004,inactive: -0.032
RPL13 (UniProt P26373),inactive: -0.009,inactive: -0.256,inactive: -0.028,inactive: -0.011,inactive: -0.005,inactive: -0.012,inactive: 0.03,inactive: 0.021,inactive: -0.05,inactive: -0.021,inactive: -0.035,inactive: -0.001,inactive: 0.012,inactive: -0.031,inactive: -0.008,inactive: -0.042,inactive: -0.027,inactive: -0.033,inactive: -0.005,inactive: 0.035
RP2 (UniProt O75695),inactive: 0.004,inactive: 0.193,inactive: 0.025,inactive: 0.024,inactive: 0.03,inactive: -0.028,inactive: 0.097,inactive: 0.002,inactive: -0.009,inactive: 0.022,inactive: 0.009,inactive: 0.031,inactive: -0.006,inactive: 0.031,inactive: -0.058,inactive: 0.057,inactive: 0.001,inactive: -0.039,inactive: 0.03,inactive: 0.017
RNF166 (UniProt Q96A37),inactive: -0.142,inactive: -0.035,inactive: 0.109,inactive: 0.086,inactive: -0.293,inactive: 0.112,inactive: -0.055,inactive: -0.024,inactive: -0.053,inactive: 0.078,inactive: -0.013,inactive: 0.063,inactive: -0.028,inactive: 0.033,inactive: -0.02,inactive: 0.062,inactive: -0.163,inactive: 0.137,inactive: 0.043,inactive: -0.067
RNF168 (UniProt Q8IYW5),inactive: -0.018,inactive: -0.023,inactive: 0.001,inactive: -0.081,inactive: 0.037,inactive: -0.007,inactive: -0.114,active: -0.311,inactive: 0.053,inactive: 0.008,inactive: 0.155,inactive: 0.144,inactive: 0.004,inactive: -0.041,inactive: -0.034,inactive: -0.071,inactive: 0.031,inactive: 0.026,inactive: -0.04,inactive: 0.011
RPL15 (UniProt P61313),inactive: -0.005,inactive: -0.103,inactive: -0.016,inactive: 0.004,inactive: -0.022,inactive: 0,inactive: 0.051,inactive: 0.011,inactive: -0.052,inactive: -0.019,inactive: 0.003,inactive: -0.006,inactive: 0.038,inactive: 0.008,inactive: -0.007,inactive: -0.014,inactive: 0.014,inactive: -0.002,inactive: -0.005,inactive: 0
RNF123 (UniProt Q5XPI4),inactive: 0.058,inactive: 0.016,inactive: -0.008,inactive: 0.029,inactive: 0.019,inactive: -0.015,inactive: -0.035,inactive: -0.005,inactive: 0.044,inactive: -0.019,inactive: 0.028,inactive: 0.017,inactive: 0.029,inactive: -0.042,inactive: -0.003,inactive: -0.02,inactive: 0.001,inactive: 0.027,inactive: -0.016,inactive: 0.022
RNF34 isoform 2 (UniProt Q969K3),inactive: 0.042,inactive: 0.037,inactive: 0.101,inactive: 0.058,inactive: -0.151,inactive: -0.196,inactive: 0.025,inactive: -0.03,inactive: -0.033,inactive: -0.085,inactive: 0.072,inactive: 0.008,inactive: 0.08,inactive: -0.003,inactive: 0,inactive: -0.099,inactive: -0.011,inactive: 0.123,inactive: 0.107,inactive: 0.026
RPAP1 (UniProt Q9BWH6),inactive: 0.05,inactive: -0.078,inactive: 0.019,inactive: 0.016,inactive: 0.007,inactive: -0.028,inactive: 0.001,inactive: -0.001,inactive: 0.02,inactive: 0.005,inactive: -0.016,inactive: 0.049,inactive: 0.02,inactive: -0.015,inactive: -0.037,inactive: 0.011,inactive: -0.002,inactive: -0.013,inactive: 0.007,inactive: -0.033
RPL32 (UniProt P62910),inactive: -0.008,inactive: 0.068,inactive: -0.002,inactive: 0.056,inactive: -0.031,inactive: 0.02,inactive: 0.097,inactive: 0.101,inactive: 0.012,inactive: 0.009,inactive: -0.008,inactive: 0,inactive: 0.008,inactive: -0.005,inactive: 0.024,inactive: 0.001,inactive: 0.007,inactive: -0.034,inactive: -0.011,inactive: 0.058
RIPOR1 isoform 4 (UniProt Q6ZS17),inactive: -0.022,inactive: 0.02,inactive: 0.024,inactive: 0.056,inactive: 0.032,inactive: 0.001,inactive: 0.069,inactive: 0.015,inactive: -0.003,inactive: -0.017,inactive: -0.013,inactive: 0.071,inactive: 0.005,inactive: 0.042,inactive: -0.035,inactive: 0.044,inactive: 0.004,inactive: 0.032,inactive: 0.053,inactive: -0.012
RIC1 (UniProt Q4ADV7),inactive: 0,inactive: -0.239,inactive: -0.074,inactive: 0.025,inactive: -0.176,inactive: 0.044,inactive: 0.035,inactive: 0.038,inactive: 0.057,inactive: 0.022,inactive: -0.129,inactive: -0.052,inactive: 0.046,inactive: -0.074,inactive: 0.038,inactive: -0.032,inactive: -0.065,inactive: 0.113,inactive: 0.027,inactive: -0.006
RNF214 (UniProt Q8ND24),inactive: -0.01,inactive: -0.043,inactive: 0.065,inactive: -0.019,inactive: -0.045,inactive: -0.007,inactive: 0.02,inactive: -0.024,inactive: 0.048,inactive: -0.003,inactive: 0.042,inactive: -0.009,inactive: 0.011,inactive: -0.022,inactive: -0.005,inactive: 0.045,inactive: 0.021,inactive: -0.013,inactive: -0.021,inactive: -0.028
RMND5A (UniProt Q9H871),inactive: 0.014,inactive: -0.029,inactive: 0.016,inactive: 0.002,inactive: -0.078,inactive: -0.011,inactive: -0.014,inactive: -0.005,inactive: -0.017,inactive: 0,inactive: 0.047,inactive: -0.035,inactive: -0.013,inactive: 0.019,inactive: -0.038,inactive: -0.012,inactive: 0,inactive: 0.005,inactive: 0.005,inactive: 0.003
RIDA (UniProt P52758),inactive: -0.027,inactive: -0.31,inactive: -0.001,inactive: -0.034,inactive: -0.036,inactive: 0.01,inactive: 0.033,inactive: 0.009,inactive: 0.056,inactive: -0.085,inactive: -0.007,inactive: -0.016,inactive: -0.03,inactive: -0.011,inactive: -0.041,inactive: -0.022,inactive: 0.017,inactive: -0.053,inactive: 0.048,inactive: -0.016
RPAP3 (UniProt Q9H6T3),inactive: 0.007,inactive: 0.007,inactive: -0.005,inactive: 0.004,inactive: -0.002,inactive: -0.003,inactive: -0.007,inactive: -0.011,inactive: 0.001,inactive: -0.004,inactive: 0.011,inactive: 0.008,inactive: -0.007,inactive: 0.016,inactive: -0.003,inactive: -0.012,inactive: 0.007,inactive: 0.003,inactive: 0.015,inactive: -0.006

# Reformatted with bars between the fields: part of the list above.
Target | log2 fold change [1] | log2 fold change [2] | log2 fold change [3] | log2 fold change [4] | log2 fold change [5] | log2 fold change [6] | log2 fold change [7] | log2 fold change [8] | log2 fold change [9] | log2 fold change [10] | log2 fold change [11] | log2 fold change [12] | log2 fold change [13] | log2 fold change [14] | log2 fold change [15] | log2 fold change [16] | log2 fold change [17] | log2 fold change [18] | log2 fold change [19] | log2 fold change [20]
RPL15 (UniProt P61313) | inactive: -0.005 | inactive: -0.103 | inactive: -0.016 | inactive: 0.004 | inactive: -0.022 | inactive: 0 | inactive: 0.051 | inactive: 0.011 | inactive: -0.052 | inactive: -0.019 | inactive: 0.003 | inactive: -0.006 | inactive: 0.038 | inactive: 0.008 | inactive: -0.007 | inactive: -0.014 | inactive: 0.014 | inactive: -0.002 | inactive: -0.005 | inactive: 0
RNF123 (UniProt Q5XPI4) | inactive: 0.058 | inactive: 0.016 | inactive: -0.008 | inactive: 0.029 | inactive: 0.019 | inactive: -0.015 | inactive: -0.035 | inactive: -0.005 | inactive: 0.044 | inactive: -0.019 | inactive: 0.028 | inactive: 0.017 | inactive: 0.029 | inactive: -0.042 | inactive: -0.003 | inactive: -0.02 | inactive: 0.001 | inactive: 0.027 | inactive: -0.016 | inactive: 0.022
